These are yes or no findings as the source states them, for the method shown. Binding can be weak; no strength is given.
Key:
[1] = molecular target: Fibronectin Extra Domain B mutant D68N D70N, hexahistidine-tagged (human); experiment: binding of fluorescent peptide nanoworms to protein-coated beads; His-tagged proteins (60 µg/40 µL beads) on Ni-NTA magnetic agarose beads; FAM-labelled PL1-NW 80 µg/reaction in PBS, 1% BSA, 0.1% NP40; 6 washes; eluted with 500 mM imidazole; fluorescence 485/535 nm; percent of WT after baseline correction with control protein P32; both purified
[2] = molecular target: Fibronectin Extra Domain B mutant E42Q D68N E64Q, hexahistidine-tagged (human); experiment: as above

- binding [1]: binds
- binding [2]: binds
Binder: PPRRGLIKLKTS (FAM fluorophore label; peptide coated on iron oxide nanoworms) [PL1-functionalized iron oxide nanoworms (FAM-labelled PL1 peptide on NWs)]

Reference: PMC8707168, “PL1 Peptide Engages Acidic Surfaces on Tumor-Associated Fibronectin and Tenascin Isoforms to Trigger Cellular Uptake” (Pharmaceutics, 2021)
